PubChem BioAssay AID1259308 | NCATS | 2017
In all, the deposit lists about 59,000 reagents; shown is a part drawn at random. About 1,510 of them (2.6%) count as active. 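Calls use total luciferase alone and ignore viability, so some active siRNAs may act by altering cell number.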 Entries without a mark were called inactive. Reagents against one gene are numbered here. Further read-outs or replicates are left out here. Reagent sequences are not shown.

- Test: 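Knock-downs that increase output of a recombinant reporter protein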 (primary screen)
- System: human HEK293 embryonic kidney cells stably expressing firefly luciferase (HEK-CMV-Luc2-Hygro)
- Reagent: single siRNA against human genes, 0.8 pmol siRNA per well
- Time to read-out: 72 h
- Detection: 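Reporter luminescence and viable-cell signal on separate replicate plates, given as percent of non-targeting control and median/MAD z-scores, plus per-cell luciferase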
- Scale: total luciferase, z-score: higher = more reporter protein produced
- Active means: 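Active when the median/MAD z-score for overall luciferase is greater than 3; a gene was taken forward for validation with new siRNAs if at least two of its three siRNAs passed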
- Meaning of the calls: active = raised luciferase; inactive = no rise

gene | siRNA no. | total luciferase, z-score
QRICH2 | 1 | -0.305
QRICH2 | 2 | 0.445
QRICH2 | 3 | -0.505
SLIT3 | 1 | -0.334
SLIT3 | 2 | 0.685
SLIT3 | 3 | 0.047
GMDS | 1 | 0.0898
GMDS | 2 | 3.37 (active)
GMDS | 3 | 2.5

No new results follow: an excerpt of the list.
gene | siRNA no. | total luciferase, z-score
QRICH2 | 1 | -0.305
QRICH2 | 2 | 0.445

The results go on:
gene | siRNA no. | total luciferase, z-score
OGN | 1 | 0.299
OGN | 2 | -0.966
OGN | 3 | -0.513
PLSCR5 | 1 | 2.41
PLSCR5 | 2 | -0.0413
PLSCR5 | 3 | 1.39
SPINT4 | 1 | -0.318
SPINT4 | 2 | 3.31 (active)
SPINT4 | 3 | 0.281
SPP1 | 1 | 0.684
SPP1 | 2 | 3.07 (active)
SPP1 | 3 | -0.353
SGIP1 | 1 | -2.63
SGIP1 | 2 | 0.126
SGIP1 | 3 | -0.089
